Measurements taken from PubChem BioAssay AID2685 (National Center for Advancing Translational Sciences (NCATS), 2010).
The other results are listed elsewhere or left out. These are further read-outs of the screen, such as a control signal, another cell line or another target. No call is given for them. Compounds called inactive in the main read-out are mostly missing here. Potencies come from curve fits of mixed quality, noted in brackets.

Test: qHTS Assay for Lipid Storage Modulators in Drosophila S3 Cells;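 for cell number change: cells counted by Cell Tracker Red CMTPX staining in the red channel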
Conditions: BODIPY lipid droplet fluorescence, 18-24 h; for cell number change: measured here: cell count max response, cells fed with added oleic acid
Procedure, shortened: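 Laser-scanning cytometry quantifies lipid droplet accumulation (500–530 nm total intensity; droplet/cell object ratio) in oleic acid-fed (400 uM added) Drosophila S3 cells treated with a concentration series. 20 uM Triacsin C defined 100% inhibition.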

[1] = measured here: lipid fluorescence (Fed channel) AC50, cells fed with added oleic acid
[2] = measured here: cell number channel AC50, cells fed with added oleic acid

SMILES	cell number change	AC50 [1]	AC50 [2]
CCCC(=O)N1CCN(c2ccc([N+](=O)[O-])cc2Cl)CC1	-4.32%	29.1 µM [falling, single point]	
O=C(NCC(c1ccco1)N1CCc2ccccc2C1)c1ccccc1Cl (configuration not stated)	32.4%		
CCOc1ccccc1C(=O)Nc1nnc(SCC(=O)N2CCOCC2)s1	3.2%	0.731 µM [rising, full curve, poor fit]	
CC(C)Nc1ncnc2ccc(Br)cc12	-62.1%	16.4 µM [falling, partial curve]	5.8 µM [falling, full curve]
Cc1ccc(C)c(C(=O)Nc2nc3ccccc3[nH]2)c1	-19%	29.1 µM [falling, single point]	
N#CCNC(=O)c1cccn1-c1ncc(C(F)(F)F)cc1Cl	-6%		
COCCCn1c(=O)c2ccccc2n(CC(=O)NCCC2=CCCCC2)c1=O	1.25%	16.4 µM [falling, partial curve, poor fit]	
O=C(NCc1cccs1)c1cnc(Cl)c(Cl)c1	49.2%	16.4 µM [rising, single point]	0.146 µM [falling, full curve, poor fit]
Cc1ccc2nc(C)cc(C(=O)OCC(=O)Nc3cccnc3Cl)c2c1	-14.9%		0.731 µM [rising, single point]
CCN(CC)CCCNC(=O)c1cc2nc(-c3ccccc3)cc(C(F)(F)F)n2n1	12.5%	1.64 µM [rising, partial curve]	
COc1cccc(Cn2cnc3c(NS(=O)(=O)c4ccc(Cl)cc4)c(C)c(C)cc32)c1		0.731 µM [rising, full curve]	2.06 µM [rising, partial curve]
O=C(CSc1nc2ccccc2[nH]1)N1CCN(S(=O)(=O)c2ccc(Cl)cc2)CC1	13.4%		0.184 µM [rising, full curve, poor fit]
CC(C)CCN(C(=O)COc1ccc(C#N)cc1)c1c(N)n(Cc2ccccc2)c(=O)[nH]c1=O		29.1 µM [falling, single point]	
CCCCCCCCCOC(=O)C[n+]1csc(CCO)c1C	12.7%	18.4 µM [rising, single point]	0.517 µM [falling, single point]
c1ccc2c(c1)CCCN2c1nc2ccccc2n2cnnc12	-4.88%	0.58 µM [rising, full curve]	
CC(Cc1n[nH]c(=S)n1N)c1ccccc1 (configuration not stated)		6.51 µM [falling, single point]	6.51 µM [falling, single point]
Cc1oc(-c2ccc(Cl)cc2)nc1CS(=O)CC(=O)NCc1ccc2c(c1)OCO2 (configuration not stated)	10.1%	8.2 µM [falling, single point]	
CCSc1nnc(NC(=O)CN(C)S(=O)(=O)c2ccc(F)cc2)s1	14.1%		
O=C(COC(=O)c1ccc(O)cc1)Nc1cccc(S(=O)(=O)NC2=NCCCCC2)c1	18.1%		
CCn1c(CNC(=O)c2ccccc2F)cc2cc(C)ccc21	-4.91%		
Cc1ccccc1-c1n[nH]c(=S)n1Cc1ccccc1	0.838%		
Cc1ccc(-c2cc(C(=O)N(C)Cc3cnn(C)c3C)c3cc(Br)ccc3n2)cc1	-10.4%	18.4 µM [rising, single point]	

SMILES	cell number change	AC50 [1]	AC50 [2]
COc1cc(C(=O)Nc2sc3c(c2C(=O)NCc2ccco2)CCCC3)cc(OC)c1OC	-72.7%		6.51 µM [falling, partial curve]
N#CC1=C(N)SC(N)=C(C#N)C1CCc1ccccc1		4.11 µM [rising, partial curve]	6.51 µM [rising, single point]
COc1ccc(CCN2CC(C(=O)Nc3nnc(Cc4ccccc4)s3)CC2=O)cc1OC (configuration not stated)	-0.796%	0.0164 µM [rising, full curve, poor fit]	
CSc1nc2ccccc2cc1/C=C(\C#N)c1ccccc1	78.3%		18.4 µM [rising, single point]
O=S1(=O)N=C(Nc2ccc(S(=O)(=O)N3CCCCC3)cc2)c2ccccc21	-14%		
Cc1ccc(S(=O)(=O)Nc2cc(=O)[nH]c(SCC(=O)Nc3ccccc3C(F)(F)F)n2)cc1	-0.952%		
O=C(NCc1ccccc1Cl)C1CCC(=O)N(C2CCCC2)C1 (configuration not stated)	6.57%	29.1 µM [rising, single point]	
CC(C)c1ccc(/C=N/n2nnnc2Nc2ccccc2)cc1	19%		
OC(COc1ccc(OCC(O)CN2CCCCC2)cc1)CN1CCCCC1 (configuration not stated)	-5.11%	6.51 µM [falling, partial curve, poor fit]	
Cc1ccc(CN2CCN(Cc3ccc(-n4cccn4)cc3)CC2CCO)cc1 (configuration not stated)	8.1%	6.51 µM [rising, partial curve]	
Cc1cc(OC(=O)N2CCCCC2)cc(C)c1Cl	-27.8%	29.1 µM [rising, single point]	
COc1ccc(CCNC(=O)CCCN2C(=O)C(c3ccccc3)Oc3cccnc32)cc1OC (configuration not stated)	2.12%		
CC(C)NC(=O)NC(=O)COC(=O)c1ccc(OC(F)(F)F)cc1	-24.2%		
Cc1cc(=O)oc2c3c(cc(OCC(=O)NCc4ccccc4)c12)OC(C)(C)CC3	-28.5%		
CCOC(=O)CNC(=O)Cn1cnc2sc(C)c(S(=O)(=O)N3CCOCC3)c2c1=O	-7.69%		
O=C(CCNS(=O)(=O)c1cccc2nsnc12)Nc1ccc2c(c1)OCCO2	58%		14.6 µM [rising, partial curve]
Cc1cccc(CC(=O)N2CCCC2)c1	-9.12%	2.06 µM [falling, single point]	
COc1ccc(C(=O)NCCS(=O)(=O)N2CCN(Cc3ccccc3)CC2)cc1		1.84 µM [falling, partial curve]	
CCCCNC(=O)CCn1c(=O)c2ccccc2n(Cc2cc(C)ccc2C)c1=O	-18.7%	16.4 µM [falling, partial curve]	
C[C@H](NC(=O)[C@@H]1Cc2ccccc2CN1)C(=O)NC1CCCC1		18.4 µM [falling, single point]	
CC(NC(=O)c1ccc2c(c1)OCCO2)c1ccc(S(N)(=O)=O)cc1 (configuration not stated)	12.7%		

Fetched one by one from the list above (2):
SMILES	cell number change	AC50 [1]	AC50 [2]
CCOC(=O)CNC(=O)Cn1cnc2sc(C)c(S(=O)(=O)N3CCOCC3)c2c1=O	-7.69%		
O=C(CCNS(=O)(=O)c1cccc2nsnc12)Nc1ccc2c(c1)OCCO2	58%		14.6 µM [rising, partial curve]
